Source: publication PMC5525008
These are yes or no findings as the source states them, for the method shown. Binding seen in cells or lysates may run through a third protein. Some results given as binding are weak or reduced against the parent protein; the word gives no strength.

By UniProt entry, the sequences of proteins in these tests, tags left out.
UniProt Q02078: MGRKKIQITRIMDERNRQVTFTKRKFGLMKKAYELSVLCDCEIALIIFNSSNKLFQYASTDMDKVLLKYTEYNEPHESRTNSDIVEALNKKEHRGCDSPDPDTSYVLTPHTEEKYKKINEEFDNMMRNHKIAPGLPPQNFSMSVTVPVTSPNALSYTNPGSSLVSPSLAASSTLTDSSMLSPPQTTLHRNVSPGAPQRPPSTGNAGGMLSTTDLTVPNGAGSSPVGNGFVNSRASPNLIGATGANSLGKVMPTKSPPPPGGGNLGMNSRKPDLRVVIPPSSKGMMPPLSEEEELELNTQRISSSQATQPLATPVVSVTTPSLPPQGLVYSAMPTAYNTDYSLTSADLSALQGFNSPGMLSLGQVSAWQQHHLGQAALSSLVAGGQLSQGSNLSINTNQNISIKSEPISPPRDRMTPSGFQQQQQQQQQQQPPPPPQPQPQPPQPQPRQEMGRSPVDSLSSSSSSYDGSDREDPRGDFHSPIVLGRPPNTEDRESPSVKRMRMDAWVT
UniProt Q14814: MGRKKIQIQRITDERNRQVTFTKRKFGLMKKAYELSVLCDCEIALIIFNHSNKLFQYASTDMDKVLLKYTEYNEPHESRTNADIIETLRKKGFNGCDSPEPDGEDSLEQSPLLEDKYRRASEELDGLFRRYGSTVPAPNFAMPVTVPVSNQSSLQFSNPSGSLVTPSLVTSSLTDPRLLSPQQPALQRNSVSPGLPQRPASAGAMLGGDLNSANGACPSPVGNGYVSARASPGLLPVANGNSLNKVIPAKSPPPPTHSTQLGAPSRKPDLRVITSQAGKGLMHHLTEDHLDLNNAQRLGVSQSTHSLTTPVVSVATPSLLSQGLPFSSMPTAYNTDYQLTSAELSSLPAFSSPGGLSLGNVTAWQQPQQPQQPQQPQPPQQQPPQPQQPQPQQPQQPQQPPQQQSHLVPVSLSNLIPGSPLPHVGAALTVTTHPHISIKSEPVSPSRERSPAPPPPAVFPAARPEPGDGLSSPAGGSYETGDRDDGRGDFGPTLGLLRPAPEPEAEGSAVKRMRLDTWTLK
UniProt Q13547: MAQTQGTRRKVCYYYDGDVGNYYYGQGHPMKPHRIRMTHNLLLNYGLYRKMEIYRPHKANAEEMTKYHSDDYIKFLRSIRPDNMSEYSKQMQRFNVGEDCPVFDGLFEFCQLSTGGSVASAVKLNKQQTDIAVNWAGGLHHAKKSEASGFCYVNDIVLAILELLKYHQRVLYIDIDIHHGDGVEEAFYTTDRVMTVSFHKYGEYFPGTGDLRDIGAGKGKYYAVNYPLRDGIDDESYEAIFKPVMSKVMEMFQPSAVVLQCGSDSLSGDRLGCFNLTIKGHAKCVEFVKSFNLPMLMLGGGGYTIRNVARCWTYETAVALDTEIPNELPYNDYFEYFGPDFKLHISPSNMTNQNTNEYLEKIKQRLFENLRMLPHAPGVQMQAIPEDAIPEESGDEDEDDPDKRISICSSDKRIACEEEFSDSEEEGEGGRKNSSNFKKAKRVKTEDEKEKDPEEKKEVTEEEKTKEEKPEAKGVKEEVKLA

Molecular target: myocyte enhancer factor 2A (human (endogenous in HRECs)) (UniProt Q02078)
Experiment: co-IP; whole cell extract of HRECs treated with or without 10 µM CAPE for 24 h; 500 µg protein with 1 µg primary antibody at 4°C overnight, Dynabeads Protein G 2 h; lysis buffer 20 mM Tris-HCl pH 7.5, 150 mM NaCl, 1% Triton X-100; Western blot of HDAC1 and MEF2D

binding	Substance
binds	myocyte enhancer factor 2D (from UniProt Q14814 1-521)
binds	histone deacetylase 1 (from UniProt Q13547 1-482) (enzyme)
